Data source: PubChem BioAssay AID720505 (Drosophila RNAi Screening Center, 2013)

Test: 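Genes needed for store-operated calcium entry in fly cells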 (primary screen)
Cells: Drosophila S2R+ cells
Reagent: long dsRNA against Drosophila genes
Treatment: thapsigargin (2 µM) in calcium-free buffer to empty internal stores, then 2 mM calcium added back
Detection: 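Fluo-4 signal in 384-well plates read on a FLIPR after thapsigargin (2 µM, calcium-free) store depletion and 2 mM calcium add-back; unnormalised mean endpoint per well; screen run twice, selected wells retested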
Reading the numbers: calcium signal and retest calcium signal: higher = more calcium entry after store depletion
Rule for the call: 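Knock-downs counted as hits when calcium entry dropped relative to STIM1 positive and Rho1 negative controls present on each plate; roughly 1500 genes called, with reductions of differing size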
Meaning of the calls: active = called as lowering calcium entry; inactive = not called
In all, the deposit lists about 20,000 reagents; shown is an unselected part of those that have a named target and a result. In the full data, about 2,100 (10%) were called active. 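Raw plate signals without normalisation; calls rest on control-based scores that were not deposited; replicate 2 separates called from uncalled poorly.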 A plus sign joins genes that one reagent is predicted to hit. The record does not give: the amount of reagent, the time to read-out.

| predicted target | PubChem SID | calcium signal, replicate 1 | calcium signal, replicate 2 | retest calcium signal, replicate 1 | retest calcium signal, replicate 2 | Outcome |
| --- | --- | --- | --- | --- | --- | --- |
| AOX2 (Aldehyde oxidase 2) | SID104195130 | 122 | 145 | – | – | inactive |
| JMJD5 (Jumonji domain containing 5) | SID104188164 | 86.4 | 80 | – | – | inactive |
| CG9328 | SID104182995 | 71.8 | 91.8 | – | – | inactive |
| ck (crinkled) | SID104183301 | 107 | 102 | – | – | inactive |
| CG7248 | SID104190580 | 132 | 107 | – | – | inactive |
| CG32448 | SID104202057 | 58.8 | 94.3 | – | – | active |
| CG12213 | SID104194270 | 166 | 181 | 175 | 111 | inactive |
| CG12213 | SID104201670 | 83.2 | 217 | – | – | inactive |
| OXA1L (OXA1L mitochondrial inner membrane protein) | SID104189464 | 84.3 | 113 | – | – | inactive |
| CG30109 + CG30108 | SID104185466 | 73.9 | 93.5 | – | – | active |
| CG33203 | SID104194666 | 164 | 127 | – | – | inactive |
| CG33203 | SID104194668 | 141 | 147 | – | – | inactive |
| CG33203 | SID104194669 | 145 | 166 | 89 | 79.8 | inactive |
| MFS12 (Major Facilitator Superfamily Transporter 12) | SID104187060 | 214 | 135 | – | – | inactive |
| CG12493 | SID104188071 | 103 | 83.4 | – | – | inactive |
| CAH6 (Carbonic anhydrase 6) | SID104195297 | 197 | 146 | – | – | inactive |
| CkIIalpha-i1 (CKII-alpha subunit interactor-1) | SID104190907 | 169 | 273 | – | – | inactive |
| msi (musashi) | SID104196795 | 73.9 | 94.3 | – | – | active |
| Grd (Glycine receptor) | SID104190970 | 135 | 155 | – | – | inactive |
| Tmf (TATA element modulatory factor) | SID104198160 | 254 | 103 | – | – | inactive |
| CG31704 | SID104201678 | 58.3 | 120 | – | – | active |
| CG17985 | SID104186494 | 119 | 128 | – | – | inactive |
| mei-P22 (meiotic P22) | SID104191158 | 81.5 | 83.5 | – | – | inactive |
| CG7785 | SID104196103 | 70.9 | 145 | – | – | active |
| CG7943 | SID104196143 | 104 | 188 | – | – | inactive |
| Lip4 (Lipase 4) | SID104182722 | 181 | 206 | – | – | inactive |
| CG3124 | SID104184131 | 96.4 | 153 | – | – | inactive |
| CG3124 | SID104202419 | 107 | 176 | – | – | inactive |
| Tollo | SID104191097 | 90.4 | 144 | – | – | inactive |
| CG1750 | SID104195032 | 44.4 | 73.8 | – | – | active |
| CG11251 | SID104189617 | 111 | 121 | – | – | inactive |
| Obp83cd (Odorant-binding protein 83cd) | SID104192059 | 82.9 | 126 | – | – | inactive |
| scny (scrawny) | SID104190301 | 76.8 | 145 | – | – | inactive |
| scny (scrawny) | SID104190302 | 128 | 90.4 | – | – | inactive |
| scny (scrawny) | SID104202586 | 99.4 | 154 | – | – | inactive |
